Laboratory results: PubChem BioAssay AID1259308 (NCATS, 2017)
Screen: 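Knock-downs that increase output of a recombinant reporter protein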 (primary screen). Cell system: human HEK293 embryonic kidney cells stably expressing firefly luciferase (HEK-CMV-Luc2-Hygro). Reagents: single siRNA against human genes, 0.8 pmol siRNA per well. Time to read-out: 72 h. Measured: 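Reporter luminescence and viable-cell signal on separate replicate plates, given as percent of non-targeting control and median/MAD z-scores, plus per-cell luciferase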. Reading the numbers: total luciferase, z-score and total luciferase, % of control: higher = more reporter protein produced; luciferase per cell, z-score: higher = more reporter output per viable cell. Call rule: 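An siRNA counts as active if its total luciferase robust z-score exceeds 3; genes with two or more such siRNAs out of three were retested with fresh siRNAs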. Calls: active = raised luciferase; inactive = no rise.
The deposit covers about 59,000 reagents; below is a part drawn at random. Over the whole deposit, about 1,510 (2.6%) got an active call. 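Calls use total luciferase alone and ignore viability, so some active siRNAs may act by altering cell number.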 Reagents against one gene are numbered here. Not all columns of the deposit are shown. No sequences are given here.

gene | siRNA no. | total luciferase, z-score | total luciferase, % of control | luciferase per cell, z-score | Call
AKAP9 | 1 | 0.5 | 91.8 | 0.0412 | inactive
AKAP9 | 2 | 0.328 | 88.4 | 1.05 | inactive
AKAP9 | 3 | -1.3 | 55.9 | -1.42 | inactive
DBR1 | 1 | -0.739 | 67.2 | -1.23 | inactive
DBR1 | 2 | -0.0412 | 81.1 | -0.0373 | inactive
DBR1 | 3 | 1.35 | 109 | 1.45 | inactive
FGF17 | 1 | 1.75 | 117 | 0.986 | inactive
FGF17 | 2 | 0.504 | 91.9 | 0.828 | inactive
FGF17 | 3 | -1.86 | 44.8 | -2.08 | inactive
LRRC71 | 1 | 1.34 | 109 | 1.88 | inactive
LRRC71 | 2 | -0.31 | 75.7 | 0.197 | inactive
LRRC71 | 3 | -0.588 | 70.2 | 0.528 | inactive
RAB43 | 1 | -2.3 | 36.1 | -2.5 | inactive
RAB43 | 2 | 0.633 | 94.5 | 1 | inactive
RAB43 | 3 | -0.149 | 78.9 | 0.0598 | inactive
APOL3 | 1 | 1.21 | 106 | 0.753 | inactive
APOL3 | 2 | -1.49 | 52.2 | -1.04 | inactive
APOL3 | 3 | -0.533 | 71.3 | 0.273 | inactive
RACK1 | 1 | -0.105 | 79.8 | 0.902 | inactive
RACK1 | 2 | 0.499 | 91.8 | 0.951 | inactive
RACK1 | 3 | -0.343 | 75.1 | 0.00621 | inactive
CT83 | 1 | 0.535 | 92.5 | 1.85 | inactive
CT83 | 2 | 2.16 | 125 | 1.46 | inactive
CT83 | 3 | 1.13 | 104 | 1.09 | inactive

5 consecutive records already listed:
gene | siRNA no. | total luciferase, z-score | total luciferase, % of control | luciferase per cell, z-score | Call
RACK1 | 2 | 0.499 | 91.8 | 0.951 | inactive
RACK1 | 3 | -0.343 | 75.1 | 0.00621 | inactive
CT83 | 1 | 0.535 | 92.5 | 1.85 | inactive
CT83 | 2 | 2.16 | 125 | 1.46 | inactive
CT83 | 3 | 1.13 | 104 | 1.09 | inactive

The listing continues:
gene | siRNA no. | total luciferase, z-score | total luciferase, % of control | luciferase per cell, z-score | Call
HINT3 | 1 | 0.69 | 95.6 | 0.636 | inactive
HINT3 | 2 | 0.813 | 98.1 | 0.538 | inactive
HINT3 | 3 | -0.119 | 79.5 | -0.0449 | inactive
CEP192P1 | 1 | 0.924 | 100 | 0.138 | inactive
CEP192P1 | 2 | -1.22 | 57.6 | -1.37 | inactive
CEP192P1 | 3 | -0.0502 | 80.9 | 0.113 | inactive
HTN3 | 1 | -0.54 | 71.1 | -0.78 | inactive
HTN3 | 2 | 0.0157 | 82.2 | 1.32 | inactive
HTN3 | 3 | -0.906 | 63.9 | -0.962 | inactive
RTN1 | 1 | 1.26 | 107 | 0.585 | inactive
RTN1 | 2 | 1.44 | 111 | 0.345 | inactive
RTN1 | 3 | 0.0791 | 83.5 | -0.543 | inactive
PRTFDC1 | 1 | 2.26 | 127 | 2.37 | inactive
PRTFDC1 | 2 | -0.451 | 72.9 | -0.488 | inactive
PRTFDC1 | 3 | 0.423 | 90.3 | -0.126 | inactive
SLC47A1 | 1 | 0.821 | 98.2 | 0.777 | inactive
SLC47A1 | 2 | 0.921 | 100 | 1.49 | inactive
SLC47A1 | 3 | 0.726 | 96.3 | 0.0577 | inactive
GRIN3A | 1 | -0.08 | 80.3 | 0.0255 | inactive
GRIN3A | 2 | 0.131 | 84.5 | -0.0575 | inactive
GRIN3A | 3 | 0.877 | 99.3 | 0.651 | inactive
KRTAP3-2 | 1 | 0.0341 | 82.6 | -0.817 | inactive
KRTAP3-2 | 2 | 2.31 | 128 | 0.898 | inactive
KRTAP3-2 | 3 | -0.484 | 72.3 | -0.264 | inactive
PAPLN | 1 | 0.238 | 86.6 | 0.684 | inactive
PAPLN | 2 | 0.471 | 91.3 | 1.18 | inactive
PAPLN | 3 | -0.661 | 68.7 | 0.0369 | inactive
ZC3H12A | 1 | 1.34 | 108 | 0.956 | inactive
ZC3H12A | 2 | -1.43 | 53.4 | -1.29 | inactive
ZC3H12A | 3 | 0.0943 | 83.8 | -0.329 | inactive
MAGEB6 | 1 | -0.0381 | 81.1 | -0.119 | inactive
MAGEB6 | 2 | 0.519 | 92.2 | 0.386 | inactive
MAGEB6 | 3 | -0.000347 | 81.9 | -0.525 | inactive
